Measurements: PMC12012327
No constants are given. Whether binding was seen depends on the method and setting. Binding seen in cells or lysates may run through a third protein. Some binding calls cover weakened binding; strength is not graded here.

Sequences of proteins named here, by UniProt entry; tags and fusion partners are left off.
UniProt Q6ZPV2: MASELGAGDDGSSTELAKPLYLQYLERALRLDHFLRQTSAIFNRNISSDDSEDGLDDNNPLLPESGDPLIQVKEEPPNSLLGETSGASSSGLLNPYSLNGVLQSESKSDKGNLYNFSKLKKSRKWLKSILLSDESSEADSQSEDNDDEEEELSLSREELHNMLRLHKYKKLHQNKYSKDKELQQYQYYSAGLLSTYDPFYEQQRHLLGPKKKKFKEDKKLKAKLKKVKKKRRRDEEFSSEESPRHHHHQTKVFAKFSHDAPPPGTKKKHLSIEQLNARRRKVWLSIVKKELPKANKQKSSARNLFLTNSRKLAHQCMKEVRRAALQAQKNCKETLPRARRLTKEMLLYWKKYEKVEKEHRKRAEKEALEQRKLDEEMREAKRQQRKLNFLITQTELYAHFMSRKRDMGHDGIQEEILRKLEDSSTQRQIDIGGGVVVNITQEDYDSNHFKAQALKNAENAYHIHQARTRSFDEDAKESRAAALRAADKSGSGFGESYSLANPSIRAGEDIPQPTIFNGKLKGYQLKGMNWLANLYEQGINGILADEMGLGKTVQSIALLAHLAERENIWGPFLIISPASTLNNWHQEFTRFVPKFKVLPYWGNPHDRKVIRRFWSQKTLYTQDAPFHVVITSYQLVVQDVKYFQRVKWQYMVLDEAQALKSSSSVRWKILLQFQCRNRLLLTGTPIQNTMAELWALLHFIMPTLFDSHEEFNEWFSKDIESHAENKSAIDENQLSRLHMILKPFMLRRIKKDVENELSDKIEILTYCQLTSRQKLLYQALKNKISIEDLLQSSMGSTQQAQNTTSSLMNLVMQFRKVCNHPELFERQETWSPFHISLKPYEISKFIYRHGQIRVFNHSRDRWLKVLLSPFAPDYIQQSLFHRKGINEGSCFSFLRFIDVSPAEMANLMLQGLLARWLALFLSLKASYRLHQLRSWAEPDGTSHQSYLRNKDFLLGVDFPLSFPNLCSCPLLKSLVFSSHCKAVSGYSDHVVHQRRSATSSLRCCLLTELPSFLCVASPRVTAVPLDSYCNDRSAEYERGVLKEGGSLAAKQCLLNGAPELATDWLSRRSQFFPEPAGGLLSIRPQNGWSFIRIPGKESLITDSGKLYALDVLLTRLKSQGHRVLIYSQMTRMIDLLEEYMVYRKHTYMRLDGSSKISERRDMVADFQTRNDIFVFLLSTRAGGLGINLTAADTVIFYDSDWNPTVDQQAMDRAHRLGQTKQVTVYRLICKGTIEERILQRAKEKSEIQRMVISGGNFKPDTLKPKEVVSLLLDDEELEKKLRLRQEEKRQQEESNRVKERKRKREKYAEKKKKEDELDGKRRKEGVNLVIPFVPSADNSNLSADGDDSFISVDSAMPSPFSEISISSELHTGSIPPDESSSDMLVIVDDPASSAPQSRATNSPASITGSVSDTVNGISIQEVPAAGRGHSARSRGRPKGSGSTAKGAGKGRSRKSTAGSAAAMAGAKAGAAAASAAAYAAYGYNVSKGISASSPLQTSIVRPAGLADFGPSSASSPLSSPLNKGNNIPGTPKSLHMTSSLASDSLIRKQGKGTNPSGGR

Target: T1, OLIG2 (mouse (endogenous in cultured mouse OL lineage cells)) (UniProt Q9EQW6)
T1 sequence: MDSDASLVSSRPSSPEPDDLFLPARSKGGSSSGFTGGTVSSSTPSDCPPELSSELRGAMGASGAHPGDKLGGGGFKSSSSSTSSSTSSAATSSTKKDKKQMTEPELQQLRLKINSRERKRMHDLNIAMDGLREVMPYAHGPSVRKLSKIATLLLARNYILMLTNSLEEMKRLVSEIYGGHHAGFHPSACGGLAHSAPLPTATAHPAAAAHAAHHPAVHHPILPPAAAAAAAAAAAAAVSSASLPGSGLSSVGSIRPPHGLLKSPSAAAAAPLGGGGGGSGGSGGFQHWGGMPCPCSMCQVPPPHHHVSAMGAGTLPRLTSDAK
Assay: proximity ligation; Duolink PLA kit on fixed cultured mouse OPs, probe antibodies against INO80 and OLIG2; anti-SOX10 as positive and anti-PDGFRA as negative control

binding: binds
Substance: INO80 (from UniProt Q6ZPV2 1-1559)
